In this data set the test system is T1, AbrB.
T1 sequence (looked up): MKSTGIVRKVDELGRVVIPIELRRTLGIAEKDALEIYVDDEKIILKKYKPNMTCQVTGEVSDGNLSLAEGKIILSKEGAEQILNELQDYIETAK
Nature of the data set: EMSA. To be noted: poly(dI:dC); recombinant protein; residues 1-94; protein details: His-tag (pET21b, BamHI/SalI); label: FAM; probe letters rebuilt from the primers and the genome. For orientation: A gel shift assay detects complexes by their altered migration in electrophoresis.

Consider one sequence from article PMC8552724.

Protein sequences can lack the tags named with them.

With “CAGCTATAACATATGATGGAAGAGAAATACCAGTGTATTCATCCAAATGGCCATTCAACAAATGAAAATGGCATAAGAATTTAAAAAATAAATAATATGGAATGGATACCATTTAAATGCTTACATTTCTTATATAAATCAAAAAACATTCACAAGTTGTCCATGTTAATTTACAAAAAGAGGTGTGAGCAAGTAATATAATGATCAATGTGGTACATGAATCGTGATCAAGTACAATAAACAATAACTACATTTCAGGTGTTTTGGTATATTTTTATAATGCCAAAACACCTTTTTGTGAAAATGGATTTTTTTAAGGTCACTTTTAAA (double strand) [Psip1Ab1-F (-531 to -202)]”, the binding result is listed as “binds”.
